Results published in PMC9899197.
No constants are given. Whether binding was seen depends on the method and setting. Binding seen in cells or lysates may run through a third protein. Some results given as binding are weak or reduced against the parent protein; the word gives no strength. For some of these results: Where a sequence is shown, tags or fusion partners need not be part of it.

The chains behind the UniProt entries cited, without tags or fusion partners. Residues count along the entry.
UniProt Q07699, residues 19-218: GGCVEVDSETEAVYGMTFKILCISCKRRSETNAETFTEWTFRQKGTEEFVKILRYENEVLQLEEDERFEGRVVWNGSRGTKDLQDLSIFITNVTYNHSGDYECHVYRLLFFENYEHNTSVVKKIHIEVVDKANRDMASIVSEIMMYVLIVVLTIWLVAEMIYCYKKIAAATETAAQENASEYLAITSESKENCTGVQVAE
UniProt O60939, residues 30-215: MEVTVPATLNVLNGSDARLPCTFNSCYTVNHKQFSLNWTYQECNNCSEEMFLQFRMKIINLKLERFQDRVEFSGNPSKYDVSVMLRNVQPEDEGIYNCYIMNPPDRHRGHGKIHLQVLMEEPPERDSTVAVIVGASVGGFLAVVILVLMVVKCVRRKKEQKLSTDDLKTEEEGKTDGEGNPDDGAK
UniProt Q99250: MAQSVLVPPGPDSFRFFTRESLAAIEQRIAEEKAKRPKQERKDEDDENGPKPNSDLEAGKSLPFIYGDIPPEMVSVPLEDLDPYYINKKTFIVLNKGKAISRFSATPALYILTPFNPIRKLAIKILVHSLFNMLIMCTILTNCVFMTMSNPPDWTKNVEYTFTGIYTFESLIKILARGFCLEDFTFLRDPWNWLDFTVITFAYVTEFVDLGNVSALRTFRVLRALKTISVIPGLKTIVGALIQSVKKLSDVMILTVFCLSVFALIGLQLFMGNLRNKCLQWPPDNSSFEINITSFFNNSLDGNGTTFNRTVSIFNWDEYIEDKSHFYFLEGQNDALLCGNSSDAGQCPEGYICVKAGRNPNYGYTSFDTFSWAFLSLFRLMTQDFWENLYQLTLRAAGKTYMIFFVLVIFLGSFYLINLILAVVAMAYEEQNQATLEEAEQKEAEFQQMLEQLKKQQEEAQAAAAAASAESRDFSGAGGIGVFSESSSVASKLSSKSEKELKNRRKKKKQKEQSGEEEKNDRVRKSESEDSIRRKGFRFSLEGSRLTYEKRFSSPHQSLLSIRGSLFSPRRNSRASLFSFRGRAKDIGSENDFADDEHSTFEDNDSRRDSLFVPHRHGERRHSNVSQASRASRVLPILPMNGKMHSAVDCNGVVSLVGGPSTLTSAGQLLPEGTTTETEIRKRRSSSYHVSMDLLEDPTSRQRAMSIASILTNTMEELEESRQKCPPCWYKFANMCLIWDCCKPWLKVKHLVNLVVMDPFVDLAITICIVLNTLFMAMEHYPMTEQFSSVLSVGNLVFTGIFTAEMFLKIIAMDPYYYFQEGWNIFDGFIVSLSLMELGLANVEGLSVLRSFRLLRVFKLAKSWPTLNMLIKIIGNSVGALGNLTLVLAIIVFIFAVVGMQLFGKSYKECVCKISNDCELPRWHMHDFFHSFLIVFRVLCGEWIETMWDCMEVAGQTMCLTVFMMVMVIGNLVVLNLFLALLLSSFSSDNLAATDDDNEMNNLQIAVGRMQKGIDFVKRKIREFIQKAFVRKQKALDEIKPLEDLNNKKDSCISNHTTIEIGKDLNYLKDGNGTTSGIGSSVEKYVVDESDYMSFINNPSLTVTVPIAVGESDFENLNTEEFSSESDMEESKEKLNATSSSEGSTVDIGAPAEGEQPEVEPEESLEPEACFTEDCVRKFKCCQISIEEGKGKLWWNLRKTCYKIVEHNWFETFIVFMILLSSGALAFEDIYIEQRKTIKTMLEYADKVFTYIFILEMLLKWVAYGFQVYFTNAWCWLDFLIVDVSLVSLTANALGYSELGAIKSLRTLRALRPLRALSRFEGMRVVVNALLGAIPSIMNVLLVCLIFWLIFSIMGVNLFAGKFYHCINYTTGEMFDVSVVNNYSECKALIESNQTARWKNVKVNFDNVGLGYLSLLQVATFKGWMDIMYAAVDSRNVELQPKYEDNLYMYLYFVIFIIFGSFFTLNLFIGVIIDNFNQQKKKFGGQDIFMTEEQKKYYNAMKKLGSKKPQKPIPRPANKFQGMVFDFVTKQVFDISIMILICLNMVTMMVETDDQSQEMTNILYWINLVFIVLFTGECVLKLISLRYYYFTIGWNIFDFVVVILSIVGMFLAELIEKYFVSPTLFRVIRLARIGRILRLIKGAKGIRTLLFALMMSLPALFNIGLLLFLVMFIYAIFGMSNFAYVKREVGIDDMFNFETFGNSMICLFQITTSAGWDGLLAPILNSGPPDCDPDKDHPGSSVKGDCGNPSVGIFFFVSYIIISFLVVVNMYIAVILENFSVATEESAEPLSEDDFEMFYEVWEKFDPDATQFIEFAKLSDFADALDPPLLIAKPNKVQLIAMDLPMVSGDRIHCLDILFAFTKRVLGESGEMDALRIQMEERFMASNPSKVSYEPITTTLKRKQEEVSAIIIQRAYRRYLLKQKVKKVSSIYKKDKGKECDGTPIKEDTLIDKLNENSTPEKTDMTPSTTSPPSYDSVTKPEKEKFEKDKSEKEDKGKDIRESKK

Legend:
Experiment in all cases: co-IP; NaV1.2-expressing HEK293 cells transfected with FLAG-tagged β-subunit (or FLAG-tagged BAP); anti-FLAG M2 Affinity Gel, 4 °C, 2 h; blot with anti-panNaV
[1] = biological target: FLAG-tagged NaV β1-subunit (SCN1B) (UniProt Q07699)
[2] = biological target: T1, FLAG-tagged NaV β4-subunit (SCN4B) (UniProt Q8IWT1)
T1 sequence: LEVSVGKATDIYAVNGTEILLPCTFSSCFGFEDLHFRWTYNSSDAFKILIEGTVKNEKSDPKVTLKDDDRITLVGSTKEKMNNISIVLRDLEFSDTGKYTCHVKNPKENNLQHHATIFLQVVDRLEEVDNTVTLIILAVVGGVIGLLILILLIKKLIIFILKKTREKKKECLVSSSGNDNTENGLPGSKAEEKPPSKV

[3] = biological target: FLAG-tagged NaV β2-subunit (SCN2B) (UniProt O60939)
[4] = biological target: T2, FLAG-tagged NaV β3-subunit (SCN3B) (UniProt Q9NY72)
T2 sequence: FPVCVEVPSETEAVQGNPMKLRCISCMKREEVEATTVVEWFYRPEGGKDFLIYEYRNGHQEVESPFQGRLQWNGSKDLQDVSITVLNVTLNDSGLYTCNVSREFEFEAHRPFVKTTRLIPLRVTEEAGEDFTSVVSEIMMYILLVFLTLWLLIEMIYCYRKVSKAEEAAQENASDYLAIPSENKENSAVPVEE

Measured: binding

human NaV1.2 α-subunit (SCN2A) (from UniProt Q99250 1-2005)
binds: [1] | [2] | [3] | [4]
